For at least one compound, name, drawing or mass did not settle the structure.
System: STAT3 and STAT5
Assay: STAT3 and STAT5 activation in whole skin treated in vivo
Parameters: species or system mouse
Details: in vivo treatment, early

Structure (SMILES): N#CC[C@H](C1CCCC1)n1cc(-c2ncnc3[nH]ccc23)cn1 [ruxolitinib]
- STAT3/5 activity: early STAT3/5 inhibition

From US20180291378A1, “METHODS AND COMPOSITIONS FOR PROMOTING HAIR GROWTH” (THE TRUSTEES OF COLUMBIA UNIVERSITY IN THE CITY OF NEW YORK, priority 2015, published 2018)
